PubChem BioAssay AID743121 – NCATS – 2013

Aim: 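Knock-downs that sensitise breast cancer cells to camptothecin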 (primary screen)
System: MDA-MB-231 cells, a human breast cancer line
Knock-down reagent: single siRNA against human genes, 20 nM siRNA (0.8 pmol per well)
Timing: 120 h (drug added 48 h after transfection, read 72 h later)
Challenge: camptothecin 20 nM (about EC30) for 72 h; vehicle 0.1% DMSO in parallel plates
Detection: 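Cell viability by ATP luminescence (CellTiter-Glo) as % of non-targeting siRNA wells, and the log2 ratio of viability without drug over viability with camptothecin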
Direction: log2 vehicle/camptothecin viability: higher = stronger sensitisation to camptothecin; viability with camptothecin and viability without drug: higher = more viable cells
Hit rule: 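Each gene scored by redundant siRNA activity (RSA) over its individual siRNA ratios; a gene is called active at p < 0.001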
In all, the deposit lists about 26,000 reagents; shown is a part drawn at random. 167 of them (0.63%) were called active. 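Calls are per gene from RSA p-values that are not deposited; an individual active-marked siRNA can sensitise only weakly.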 Reagents against one gene are numbered here. No sequences are given here.

gene	reagent	log2 vehicle/camptothecin viability	viability with camptothecin (% of control)	viability without drug (% of control)	Outcome
PRKAG1	1	-0.0382	95	92.5	inactive
PRKAG1	2	-0.057	71.8	69	inactive
PRKAG1	3	-0.294	74.2	60.5	inactive
PRKAG1	4	-0.262	77.2	64.4	inactive
IL13RA1	1	-0.217	62.9	54.1	inactive
IL13RA1	2	-0.459	97.3	70.8	inactive
IL13RA1	3	-0.195	97.4	85	inactive
IL13RA1	4	-0.175	107	95.2	inactive
VPS41	1	0.154	51.1	56.9	inactive
VPS41	2	0.724	20.5	33.9	inactive
VPS41	3	0.623	17.8	27.3	inactive
VPS41	4	-0.387	45.4	34.7	inactive
THRB	1	-0.0548	108	104	inactive
THRB	2	-0.168	80.8	71.9	inactive
THRB	3	-0.173	114	101	inactive
THRB	4	-0.175	70.8	62.7	inactive
ECE1	1	-0.547	37.1	25.4	inactive
ECE1	2	0.0122	100	101	inactive
ECE1	3	0.051	78.5	81.3	inactive
SSPOP	1	-0.417	122	91.5	inactive
KLC4	1	-0.183	77.4	68.2	inactive
KLC4	2	1.04	9.37	19.3	inactive
KLC4	3	0.0863	57.3	60.8	inactive
KLC4	4	0.0139	4.22	4.26	inactive
HIPK4	1	-0.702	115	70.9	inactive
HIPK4	2	-0.0766	103	98.1	inactive
HIPK4	3	0.106	54.7	58.8	inactive
HIPK4	4	-0.184	112	98.3	inactive

Reformatted: 3 of the entries above.
| gene | reagent | log2 vehicle/camptothecin viability | viability with camptothecin (% of control) | viability without drug (% of control) | Outcome |
| --- | --- | --- | --- | --- | --- |
| ECE1 | 1 | -0.547 | 37.1 | 25.4 | inactive |
| ECE1 | 2 | 0.0122 | 100 | 101 | inactive |
| ECE1 | 3 | 0.051 | 78.5 | 81.3 | inactive |
